From patent US20240382656A1, “Drug Coatings for Medical Devices” (Bard Peripheral Vascular, Inc., priority 2021, published 2024)

Test: Solubility of sirolimus in the coating solvent cyclohexane (slurry preparation, Example 1)
Type: physicochemical
Conditions: cyclohexane with dissolved petroleum jelly; 25 mg ground sirolimus (<40 μm) in 5 ml
Description: 75 mg of petroleum jelly was dissolved in 5 ml of cyclohexane. 25 mg of sirolimus that was ground to the selected size range of <40 μm), and then added to the solution. […] The ratio of drug to petroleum jelly was 1:3 and the coating solution concentration is 5 mg/ml.

solubility in cyclohexane: not soluble
Compound: CO[C@H]1C[C@@H]2CC[C@@H](C)[C@@](O)(O2)C(=O)C(=O)N2CCCC[C@H]2C(=O)O[C@H]([C@H](C)C[C@@H]2CC[C@@H](O)[C@H](OC)C2)CC(=O)[C@H](C)/C=C(\C)[C@@H](O)[C@@H](OC)C(=O)[C@H](C)C[C@H](C)/C=C/C=C/C=C/1C [Sirolimus, sirolimus]
